From article PMC6451093
These are yes or no findings as the source states them, for the method shown. In cells and extracts the contact can be indirect. Some binding calls cover weakened binding; strength is not graded here. For some of these results: Where a sequence is shown, tags or fusion partners need not be part of it.

Protein sequences, listed by entry. Tags and fused reporters are not part of them.
UniProt P11388: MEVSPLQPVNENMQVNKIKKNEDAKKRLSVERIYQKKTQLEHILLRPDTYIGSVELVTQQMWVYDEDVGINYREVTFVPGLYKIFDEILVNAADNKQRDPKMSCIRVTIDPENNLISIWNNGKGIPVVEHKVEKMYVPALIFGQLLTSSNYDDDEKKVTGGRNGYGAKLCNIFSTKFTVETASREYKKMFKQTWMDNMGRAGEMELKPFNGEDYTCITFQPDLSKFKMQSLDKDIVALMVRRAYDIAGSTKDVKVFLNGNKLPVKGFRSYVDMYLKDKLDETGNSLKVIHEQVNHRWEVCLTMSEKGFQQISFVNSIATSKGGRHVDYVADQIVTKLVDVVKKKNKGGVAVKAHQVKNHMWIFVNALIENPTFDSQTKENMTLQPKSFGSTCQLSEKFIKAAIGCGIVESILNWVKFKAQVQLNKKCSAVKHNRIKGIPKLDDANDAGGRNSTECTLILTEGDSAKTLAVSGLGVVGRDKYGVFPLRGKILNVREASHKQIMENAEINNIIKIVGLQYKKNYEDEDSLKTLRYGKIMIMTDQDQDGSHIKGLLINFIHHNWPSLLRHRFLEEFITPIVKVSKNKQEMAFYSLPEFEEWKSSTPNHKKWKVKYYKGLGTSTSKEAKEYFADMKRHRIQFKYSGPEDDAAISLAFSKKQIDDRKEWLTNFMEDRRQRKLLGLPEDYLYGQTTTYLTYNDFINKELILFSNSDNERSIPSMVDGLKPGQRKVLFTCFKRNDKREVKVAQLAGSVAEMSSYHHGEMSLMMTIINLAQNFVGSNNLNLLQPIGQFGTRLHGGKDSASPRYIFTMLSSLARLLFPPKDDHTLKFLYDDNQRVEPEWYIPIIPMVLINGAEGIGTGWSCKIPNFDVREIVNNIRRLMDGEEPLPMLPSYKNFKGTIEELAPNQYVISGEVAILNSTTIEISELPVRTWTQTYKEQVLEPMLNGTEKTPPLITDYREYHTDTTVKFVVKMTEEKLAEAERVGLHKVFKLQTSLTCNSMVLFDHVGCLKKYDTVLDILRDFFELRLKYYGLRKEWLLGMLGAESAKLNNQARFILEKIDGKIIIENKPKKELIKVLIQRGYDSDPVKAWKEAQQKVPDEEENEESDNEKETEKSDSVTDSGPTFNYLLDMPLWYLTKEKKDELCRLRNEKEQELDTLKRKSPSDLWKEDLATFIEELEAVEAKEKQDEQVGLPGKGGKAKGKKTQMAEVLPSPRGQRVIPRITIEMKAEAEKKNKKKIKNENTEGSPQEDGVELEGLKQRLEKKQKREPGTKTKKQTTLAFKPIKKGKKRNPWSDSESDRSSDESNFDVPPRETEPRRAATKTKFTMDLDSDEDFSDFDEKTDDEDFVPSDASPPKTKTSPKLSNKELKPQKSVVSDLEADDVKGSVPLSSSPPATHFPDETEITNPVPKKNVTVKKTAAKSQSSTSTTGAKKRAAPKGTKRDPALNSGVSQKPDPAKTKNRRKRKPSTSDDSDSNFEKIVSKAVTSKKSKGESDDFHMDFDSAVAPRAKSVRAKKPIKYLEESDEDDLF

T1: SMC6 (human (endogenous in RPE1)) (UniProt Q96SB8)
T1 sequence: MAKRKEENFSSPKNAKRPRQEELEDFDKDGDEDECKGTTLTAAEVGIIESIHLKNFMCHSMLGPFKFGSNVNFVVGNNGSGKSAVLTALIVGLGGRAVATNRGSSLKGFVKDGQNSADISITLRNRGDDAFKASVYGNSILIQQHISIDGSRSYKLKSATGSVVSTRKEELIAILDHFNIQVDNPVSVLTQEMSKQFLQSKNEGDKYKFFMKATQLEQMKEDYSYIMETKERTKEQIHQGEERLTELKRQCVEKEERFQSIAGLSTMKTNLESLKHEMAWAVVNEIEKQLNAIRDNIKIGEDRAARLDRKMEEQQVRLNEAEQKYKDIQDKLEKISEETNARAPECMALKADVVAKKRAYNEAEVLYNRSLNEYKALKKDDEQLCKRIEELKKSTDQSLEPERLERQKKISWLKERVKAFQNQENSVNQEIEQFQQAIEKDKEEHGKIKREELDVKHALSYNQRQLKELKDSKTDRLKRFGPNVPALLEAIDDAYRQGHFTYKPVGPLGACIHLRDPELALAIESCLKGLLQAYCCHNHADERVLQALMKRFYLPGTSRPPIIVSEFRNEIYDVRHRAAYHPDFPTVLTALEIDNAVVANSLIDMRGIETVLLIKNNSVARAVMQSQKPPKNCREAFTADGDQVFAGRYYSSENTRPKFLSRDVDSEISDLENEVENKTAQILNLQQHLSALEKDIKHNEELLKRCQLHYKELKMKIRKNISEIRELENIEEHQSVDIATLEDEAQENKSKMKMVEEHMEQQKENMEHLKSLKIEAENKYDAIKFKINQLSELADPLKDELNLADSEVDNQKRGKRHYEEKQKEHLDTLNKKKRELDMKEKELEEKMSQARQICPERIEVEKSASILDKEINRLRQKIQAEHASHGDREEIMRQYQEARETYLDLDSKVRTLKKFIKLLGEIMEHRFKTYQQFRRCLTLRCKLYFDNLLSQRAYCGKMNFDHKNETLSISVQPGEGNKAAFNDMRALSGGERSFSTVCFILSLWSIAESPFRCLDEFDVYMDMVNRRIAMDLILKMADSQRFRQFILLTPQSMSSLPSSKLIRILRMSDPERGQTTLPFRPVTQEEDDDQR


Columns and labels:
[1] = molecular target: Topo2a (human (endogenous in RPE1)) (UniProt P11388); assay: proximity ligation; RPE1 cells on chambered slides, fixed, kit (Sigma); with or without 3 μM ICRF193 for 18 h; non-targeting control or siSMC6
[2] = molecular target: Topo2a (human (endogenous in RPE1)) (UniProt P11388); assay: co-IP; cells lysed by sonication in RIPA buffer; Topo2a-antibodies (Millipore) or SMC6-antibodies (Abcam) on Dynabeads Protein G, 2 h at 4°C; immunoblot; with or without ICRF193
[3] = molecular target: T1, SMC6 (human (endogenous in RPE1)); assay: as above

binding [1] | binding [2] | binding [3] | Binder
binds | binds | – | SMC6 (protein, UniProt Q96SB8 1-1091) MAKRKEENFSSPKNAKRPRQEELEDFDKDGDEDECKGTTLTAAEVGIIESIHLKNFMCHSMLGPFKFGSNVNFVVGNNGSGKSAVLTALIVGLGGRAVATNRGSSLKGFVKDGQNSADISITLRNRGDDAFKASVYGNSILIQQHISIDGSRSYKLKSATGSVVSTRKEELIAILDHFNIQVDNPVSVLTQEMSKQFLQSKNEGDKYKFFMKATQLEQMKEDYSYIMETKERTKEQIHQGEERLTELKRQCVEKEERFQSIAGLSTMKTNLESLKHEMAWAVVNEIEKQLNAIRDNIKIGEDRAARLDRKMEEQQVRLNEAEQKYKDIQDKLEKISEETNARAPECMALKADVVAKKRAYNEAEVLYNRSLNEYKALKKDDEQLCKRIEELKKSTDQSLEPERLERQKKISWLKERVKAFQNQENSVNQEIEQFQQAIEKDKEEHGKIKREELDVKHALSYNQRQLKELKDSKTDRLKRFGPNVPALLEAIDDAYRQGHFTYKPVGPLGACIHLRDPELALAIESCLKGLLQAYCCHNHADERVLQALMKRFYLPGTSRPPIIVSEFRNEIYDVRHRAAYHPDFPTVLTALEIDNAVVANSLIDMRGIETVLLIKNNSVARAVMQSQKPPKNCREAFTADGDQVFAGRYYSSENTRPKFLSRDVDSEISDLENEVENKTAQILNLQQHLSALEKDIKHNEELLKRCQLHYKELKMKIRKNISEIRELENIEEHQSVDIATLEDEAQENKSKMKMVEEHMEQQKENMEHLKSLKIEAENKYDAIKFKINQLSELADPLKDELNLADSEVDNQKRGKRHYEEKQKEHLDTLNKKKRELDMKEKELEEKMSQARQICPERIEVEKSASILDKEINRLRQKIQAEHASHGDREEIMRQYQEARETYLDLDSKVRTLKKFIKLLGEIMEHRFKTYQQFRRCLTLRCKLYFDNLLSQRAYCGKMNFDHKNETLSISVQPGEGNKAAFNDMRALSGGERSFSTVCFILSLWSIAESPFRCLDEFDVYMDMVNRRIAMDLILKMADSQRFRQFILLTPQSMSSLPSSKLIRILRMSDPERGQTTLPFRPVTQEEDDDQR
binds | – | – | NSE2wt-GFP (enzyme, UniProt Q96MF7 1-247) MPGRSSSNSGSTGFISFSGVESALSSLKNFQACINSGMDTASSVALDLVESQTEVSSEYSMDKAMVEFATLDRQLNHYVKAVQSTINHVKEERPEKIPDLKLLVEKKFLALQSKNSDADFQNNEKFVQFKQQLKELKKQCGLQADREADGTEGVDEDIIVTQSQTNFTCPITKEEMKKPVKNKVCGHTYEEDAIVRMIESRQKRKKKAYCPQIGCSHTDIRKSDLIQDEALRRAIENHNKKRHRHSE
– | – | binds | NSE2-H187A-GFP (enzyme, UniProt Q96MF7 1-247) MPGRSSSNSGSTGFISFSGVESALSSLKNFQACINSGMDTASSVALDLVESQTEVSSEYSMDKAMVEFATLDRQLNHYVKAVQSTINHVKEERPEKIPDLKLLVEKKFLALQSKNSDADFQNNEKFVQFKQQLKELKKQCGLQADREADGTEGVDEDIIVTQSQTNFTCPITKEEMKKPVKNKVCGATYEEDAIVRMIESRQKRKKKAYCPQIGCSHTDIRKSDLIQDEALRRAIENHNKKRHRHSE
